This note sets out measurements from paper PMC4428482.

The test deals with T1, CeHop (STI-1) (C. elegans (endogenous in wild-type animals)) (UniProt O16259).
T1 sequence: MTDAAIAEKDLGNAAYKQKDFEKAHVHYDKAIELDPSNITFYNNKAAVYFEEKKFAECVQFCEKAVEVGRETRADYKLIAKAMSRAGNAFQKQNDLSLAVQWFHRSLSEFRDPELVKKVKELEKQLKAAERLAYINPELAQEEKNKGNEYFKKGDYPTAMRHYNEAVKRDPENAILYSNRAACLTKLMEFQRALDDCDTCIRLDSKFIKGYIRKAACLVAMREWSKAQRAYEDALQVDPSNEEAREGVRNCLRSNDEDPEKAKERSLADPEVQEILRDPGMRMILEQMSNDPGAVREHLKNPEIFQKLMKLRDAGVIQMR
Nature of the test: co-IP; total lysate of age-synchronized wild-type C. elegans in RIPA buffer with protease inhibitors, 4°C; anti-CeHop or anti-CeAha1 antibodies, Protein A/G PLUS-Agarose beads, three washes in RIPA buffer; western blot with anti-CeHop, anti-CeAha1, anti-CeHsp90 or anti-UNC-45 antibodies.

These are yes or no findings as the source states them, for the method shown. In cells and extracts the contact can be indirect. Some entries that bind do so weakly or less than the wild type.

In the case of “CeHsp90 (DAF-21) (from UniProt Q18688 1-702)”, the binding entry is given as “binds”.

B1: UNC-45 (protein, UniProt G5EG62 1-961)
chain: MVARVQTAEEIRDEGNAAVKDQDYIKADELYTEALQLTTDEDKALRPVLYRNRAMARLKRDDFEGAQSDCTKALEFDGADVKALFRRSLAREQLGNVGPAFQDAKEALRLSPNDKGIVEVLQRLVKANNDKIKQTTSLANKVTDMEKLAFRGEAKDTEQKMTALNNLLVLCRESESGATGVWNQGALVPFVLNLINDASENEEVTVTAIRILDETIKNSVRCMKFLAMHDPDGPKSVRFVCRLMCKKSTKDFVDATGILVQRVFNAMAKMDRQKEMKPDPEVAEANKIWIIRVLLELQEMLQDPKVGAVQRETCIDLFLKNLMHMDGGIPRGWSWKFVEERGLLALLDVASQIPELCEYPVSAETRQHVAICLQRLEEDMVFDTKRTIFKEKVDMFFNALISRCTNDDEGHKYRIKLSCFLITMLQGPVDIGINLITNDQLTPIMLEMAASQDHLMQGIAAELIVATVSKHERAINMLKVGIPVLRALYDSEDPTVKVRALVGLCKIGAAGGDDISKATMKEEAVISLAKTCKKFLLETEKYSVDIRRYACEGLSYLSLDADVKEWIVDDSLLLKALVLLAKKAGALCVYTLATIYANLSNAFEKPKVDEEMVKLAQFAKHHVPETHPKDTEEYVEKRVRALVEEGAVPACVAVSKTESKNALELIARSLLAFAEYEDLRGRIIAEGGTVLCLRLTKEASGEGKIKAGHAIAKLGAKADPMISFPGQRAYEVVKPLCDLLHPDVEGKANYDSLLTLTNLASVSDSIRGRILKEKAIPKIEEFWFMTDHEHLRAAAAELLLNLLFFEKFYEETVAPGTDRLKLWVLYSAEVEEERLSRASAAGFAILTEDENACARIMDEIKSWPEVFKDIAMHEDAETQRRGLMGIANIMHSSNKLCSEIVSSEVFRVLVAVTKLGTINQERAGSTEQAKRGLEAAEKFGLIKATDREIYERENQMSTIQE
In the case of B1, the binding result is listed as “no binding”.
